Results as given in article PMC13480600.
Results are given in words; binding and its absence hold for the method and conditions named. Some binding calls cover weakened binding; strength is not graded here.

Protein sequences, listed by entry. Tags and fused reporters are not part of them. Residues count along the entry.
UniProt Q09057, residues 56-711: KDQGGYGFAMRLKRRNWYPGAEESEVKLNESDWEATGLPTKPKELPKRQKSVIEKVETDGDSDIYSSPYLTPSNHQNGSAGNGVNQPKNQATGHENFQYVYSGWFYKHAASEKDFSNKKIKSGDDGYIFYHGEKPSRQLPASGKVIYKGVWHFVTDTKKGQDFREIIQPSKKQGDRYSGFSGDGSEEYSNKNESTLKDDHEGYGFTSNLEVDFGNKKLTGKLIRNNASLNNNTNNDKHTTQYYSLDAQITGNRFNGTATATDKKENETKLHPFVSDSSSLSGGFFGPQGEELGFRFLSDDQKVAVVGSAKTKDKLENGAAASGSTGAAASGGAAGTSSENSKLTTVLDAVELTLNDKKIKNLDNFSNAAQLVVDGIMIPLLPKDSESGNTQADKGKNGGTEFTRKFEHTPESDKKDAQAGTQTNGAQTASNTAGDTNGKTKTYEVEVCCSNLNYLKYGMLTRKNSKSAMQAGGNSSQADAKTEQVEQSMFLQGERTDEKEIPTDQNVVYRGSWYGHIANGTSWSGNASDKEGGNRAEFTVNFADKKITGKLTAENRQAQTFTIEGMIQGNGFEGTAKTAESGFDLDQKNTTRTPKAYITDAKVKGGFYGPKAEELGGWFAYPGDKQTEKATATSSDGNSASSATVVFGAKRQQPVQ
UniProt P02787, residues 20-698: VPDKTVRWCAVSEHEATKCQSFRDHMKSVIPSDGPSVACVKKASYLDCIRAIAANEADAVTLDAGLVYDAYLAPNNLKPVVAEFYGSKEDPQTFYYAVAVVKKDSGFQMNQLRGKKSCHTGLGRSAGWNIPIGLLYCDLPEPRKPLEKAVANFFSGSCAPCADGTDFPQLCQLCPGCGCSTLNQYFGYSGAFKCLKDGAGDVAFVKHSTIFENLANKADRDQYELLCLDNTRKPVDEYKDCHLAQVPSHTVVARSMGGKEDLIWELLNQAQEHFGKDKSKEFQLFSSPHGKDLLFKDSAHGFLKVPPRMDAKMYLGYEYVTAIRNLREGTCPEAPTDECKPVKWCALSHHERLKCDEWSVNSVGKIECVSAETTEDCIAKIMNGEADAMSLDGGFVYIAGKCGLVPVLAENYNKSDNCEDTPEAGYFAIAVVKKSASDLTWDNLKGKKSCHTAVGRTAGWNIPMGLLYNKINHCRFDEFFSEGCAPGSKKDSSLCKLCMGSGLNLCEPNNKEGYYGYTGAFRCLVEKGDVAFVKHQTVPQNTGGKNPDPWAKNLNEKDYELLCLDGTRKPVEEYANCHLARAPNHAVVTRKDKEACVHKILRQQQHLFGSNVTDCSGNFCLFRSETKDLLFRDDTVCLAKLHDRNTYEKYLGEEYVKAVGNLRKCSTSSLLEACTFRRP

Target: Transferrin binding protein B of Neisseria meningitidis serogroup B strain M982 (Neisseria meningitidis serogroup B strain M982) (UniProt Q09057)
Assay: ELISA; high throughput protein ELISA; TbpB proteins captured on the plate, HRP-labelled hTf added as control of capture and folding

Substance: HRP-labelled human transferrin (from UniProt P02787 20-698) (ligand)
- binding: binds
